This note sets out measurements from PMC7961090.

The chains behind the UniProt entries cited, without tags or fusion partners. Residues count along the entry.
UniProt P36544, residues 23-502: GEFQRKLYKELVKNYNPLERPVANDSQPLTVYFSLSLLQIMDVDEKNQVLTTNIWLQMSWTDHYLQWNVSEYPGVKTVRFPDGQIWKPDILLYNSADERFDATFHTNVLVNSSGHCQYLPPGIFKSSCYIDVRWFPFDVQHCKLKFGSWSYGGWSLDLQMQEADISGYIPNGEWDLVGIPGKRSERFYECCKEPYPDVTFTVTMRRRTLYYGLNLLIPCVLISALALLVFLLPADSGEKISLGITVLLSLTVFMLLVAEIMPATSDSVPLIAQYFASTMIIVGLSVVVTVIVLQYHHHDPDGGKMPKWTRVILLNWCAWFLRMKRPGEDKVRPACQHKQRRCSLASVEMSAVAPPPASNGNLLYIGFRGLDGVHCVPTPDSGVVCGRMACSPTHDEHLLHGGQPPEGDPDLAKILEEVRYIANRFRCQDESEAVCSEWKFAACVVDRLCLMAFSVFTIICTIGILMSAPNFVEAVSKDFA

No constants are given. Whether binding was seen depends on the method and setting. Binding seen in cells or lysates may run through a third protein. Some binding calls cover weakened binding; strength is not graded here.

This test concerns the target human α7-nAChR-GFP receptors (human) (UniProt P36544). Briefly: co-IP; lysates of HEK293 cells with α7-nAChR-GFP incubated with 2 μM Aβ42 and 5 μM active (YEVHHQ) or inactive (SEVAAQ) Aβcore peptide for 18 h; immunoprecipitated with anti-GFP antibody; only the binder purified.

With YEVHHQ [Aβcore peptide (YEVHHQ)], the binding result is on record as “binds”.
